Data reported in PMC9822066 (Molecules, 2022).

System: mice
Assay: Passive Avoidance Test, scopolamine-induced amnesia
Type: in vivo
Design: unit not given here
Conditions: scopolamine 1 mg/kg s.c. alone; mean ± SEM

CN1[C@@H]2C[C@@H](OC(=O)[C@H](CO)c3ccccc3)C[C@H]1[C@@H]1O[C@@H]12 [scopolamine, reference compound]
latency time in the retention trial: 22.71 ± 7.56
